In US20240352429A1, “AGENT FOR INDUCING VIRAL VECTOR PRODUCTION” (priority 2021, published 2024):

Test system: suspension HEK293 cells (FreeStyle 293F cell)
Type: cell-based
Conditions: added 4 hours after introduction of the nucleic acid, DMSO as solubilizer, nocodazole 500 nM, benzimidazoles 50 μM, 5 μM, vinblastine sulfate, colcemid, taxanes 5 μM, 100 nM, FIG. 3 to 7

## CN[C@H]1CCc2cc(OC)c(OC)c(OC)c2-c2ccc(OC)c(=O)cc21 [colcemid]
  titer of adeno-associated virus vector in the cell-derived sample, various cell growth inhibitors A: improved
